From publication PMC9324012
No constants are given. Whether binding was seen depends on the method and setting. For some of these results: Binding seen in cells or lysates may run through a third protein. Some results given as binding are weak or reduced against the parent protein; the word gives no strength. For some of these results: Sequences can lack the tags named with a protein.

Sequences of proteins named here, by UniProt entry; tags and fusion partners are left off.
UniProt Q15672: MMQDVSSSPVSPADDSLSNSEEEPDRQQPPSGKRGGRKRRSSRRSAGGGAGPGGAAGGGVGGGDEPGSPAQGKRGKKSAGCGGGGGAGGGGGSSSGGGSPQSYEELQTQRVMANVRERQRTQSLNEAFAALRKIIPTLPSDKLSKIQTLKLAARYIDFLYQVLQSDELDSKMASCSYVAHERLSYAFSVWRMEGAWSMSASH
UniProt Q92769: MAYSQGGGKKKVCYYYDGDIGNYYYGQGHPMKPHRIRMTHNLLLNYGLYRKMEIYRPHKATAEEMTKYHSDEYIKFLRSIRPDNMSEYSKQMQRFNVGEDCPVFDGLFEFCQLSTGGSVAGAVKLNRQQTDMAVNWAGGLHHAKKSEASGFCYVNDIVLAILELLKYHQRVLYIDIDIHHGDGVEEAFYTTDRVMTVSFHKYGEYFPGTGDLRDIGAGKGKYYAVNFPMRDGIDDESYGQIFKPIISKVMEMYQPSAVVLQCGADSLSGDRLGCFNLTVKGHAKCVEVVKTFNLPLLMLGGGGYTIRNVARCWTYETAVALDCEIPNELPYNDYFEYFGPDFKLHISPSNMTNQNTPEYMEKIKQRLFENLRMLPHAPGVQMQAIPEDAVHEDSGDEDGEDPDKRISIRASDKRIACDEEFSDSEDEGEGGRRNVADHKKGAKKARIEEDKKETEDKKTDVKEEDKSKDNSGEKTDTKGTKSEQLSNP
UniProt Q09028: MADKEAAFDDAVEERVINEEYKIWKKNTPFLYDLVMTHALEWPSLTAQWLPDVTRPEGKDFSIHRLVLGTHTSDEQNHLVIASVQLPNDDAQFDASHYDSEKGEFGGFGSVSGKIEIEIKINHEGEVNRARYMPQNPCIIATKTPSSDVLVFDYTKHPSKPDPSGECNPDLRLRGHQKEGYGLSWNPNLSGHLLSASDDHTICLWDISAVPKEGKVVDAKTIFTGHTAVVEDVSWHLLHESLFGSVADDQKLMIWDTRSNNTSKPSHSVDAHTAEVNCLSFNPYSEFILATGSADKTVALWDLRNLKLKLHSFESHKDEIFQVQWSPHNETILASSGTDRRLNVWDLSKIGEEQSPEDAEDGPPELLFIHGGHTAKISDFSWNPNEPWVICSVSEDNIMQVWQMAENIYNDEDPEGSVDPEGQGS

T1: GST/His-fused ZEB2 purified from E. coli (UniProt A0JP08)
T1 sequence: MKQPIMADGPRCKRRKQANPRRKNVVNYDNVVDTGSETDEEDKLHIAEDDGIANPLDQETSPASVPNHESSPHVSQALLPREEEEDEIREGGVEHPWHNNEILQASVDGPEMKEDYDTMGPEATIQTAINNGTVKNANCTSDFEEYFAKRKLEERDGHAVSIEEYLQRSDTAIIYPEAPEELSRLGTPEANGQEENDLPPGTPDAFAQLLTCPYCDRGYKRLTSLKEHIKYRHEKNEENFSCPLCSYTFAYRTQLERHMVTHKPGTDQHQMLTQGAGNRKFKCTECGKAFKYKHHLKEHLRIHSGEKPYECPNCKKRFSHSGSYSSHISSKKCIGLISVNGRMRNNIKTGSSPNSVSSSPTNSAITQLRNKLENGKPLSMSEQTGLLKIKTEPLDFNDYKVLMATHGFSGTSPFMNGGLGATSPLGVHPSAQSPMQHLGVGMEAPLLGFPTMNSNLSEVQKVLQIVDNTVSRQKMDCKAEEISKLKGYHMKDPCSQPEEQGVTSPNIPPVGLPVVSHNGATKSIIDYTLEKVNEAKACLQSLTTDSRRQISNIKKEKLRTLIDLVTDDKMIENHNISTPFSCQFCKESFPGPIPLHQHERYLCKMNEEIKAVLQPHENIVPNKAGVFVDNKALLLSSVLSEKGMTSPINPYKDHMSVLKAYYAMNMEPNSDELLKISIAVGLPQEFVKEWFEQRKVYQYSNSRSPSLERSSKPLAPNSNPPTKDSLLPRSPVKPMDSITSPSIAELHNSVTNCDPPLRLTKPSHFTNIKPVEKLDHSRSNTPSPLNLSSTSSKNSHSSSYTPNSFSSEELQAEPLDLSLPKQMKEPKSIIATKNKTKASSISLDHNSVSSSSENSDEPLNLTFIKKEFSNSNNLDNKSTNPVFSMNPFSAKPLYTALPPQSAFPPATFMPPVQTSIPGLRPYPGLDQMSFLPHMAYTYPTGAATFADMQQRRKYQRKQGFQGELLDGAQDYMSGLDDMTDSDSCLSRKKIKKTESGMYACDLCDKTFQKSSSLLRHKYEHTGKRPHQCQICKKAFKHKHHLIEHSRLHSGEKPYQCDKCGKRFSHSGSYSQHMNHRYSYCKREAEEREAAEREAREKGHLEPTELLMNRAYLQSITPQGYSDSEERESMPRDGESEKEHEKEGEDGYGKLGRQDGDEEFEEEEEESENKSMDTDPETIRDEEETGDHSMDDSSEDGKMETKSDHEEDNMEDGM

T2: HA-tagged ZEB2 (Zinc finger E-box-binding homeobox 2) (UniProt A0JP08)
T2 sequence: T1 sequence

T3: ZEB2 immunoprecipitated from HT29, HCT116 and SW620 cells (UniProt A0JP08)
T3 sequence: T1 sequence

B1: HA-tagged ZEB2 (Zinc finger E-box-binding homeobox 2) (protein, UniProt A0JP08 1-1213)
chain: T1 sequence

Legend:
[1] = target: T1, GST/His-fused ZEB2 purified from E. coli; experiment: pull-down; GST pull-down: GST-fused proteins mixed with 6*His-fused proteins, all purified from E. coli; glutathione beads 4 h, five washes, Western blot; both purified
[2] = target: T2, HA-tagged ZEB2 (Zinc finger E-box-binding homeobox 2); experiment: co-IP; whole-cell lysates of SW480 cells overexpressing ZEB2 (without or with overexpressed TWIST1) immunoprecipitated for ZEB2, Western blot of the precipitates; IgG as negative control
[3] = target: T3, ZEB2 immunoprecipitated from HT29, HCT116 and SW620 cells; experiment: co-IP; immunoprecipitation of ZEB2 from HT29, HCT116 and SW620 cells, Western blot (Supplementary Figure S7)
FLAG-tagged TWIST1 [4] = target: FLAG-tagged TWIST1 (UniProt Q15672); experiment: co-IP; affinity purification from SW480 cells overexpressing FLAG-TWIST1 alone (no ZEB2 overexpression), Western blot
FLAG-tagged TWIST1 [5] = target: FLAG-tagged TWIST1 (UniProt Q15672); experiment: co-IP; SW480 cells overexpressing both FLAG-tagged TWIST1 and HA-tagged ZEB2; extracts immunoprecipitated with FLAG antibody, Western blot

| Molecule | binding [1] | binding [2] | binding [3] | binding (FLAG-tagged TWIST1 [4]) | binding (FLAG-tagged TWIST1 [5]) |
| --- | --- | --- | --- | --- | --- |
| GST/His-fused TWIST1 purified from E. coli (from UniProt Q15672 1-202) | binds | – | – | – | – |
| HDAC2, endogenous (from UniProt Q92769 1-488) (enzyme) | – | binds | binds | – | – |
| Histone-binding protein RBBP4 (RbAp48), endogenous (from UniProt Q09028 1-425) | – | binds | binds | binds | – |
| B1 | – | – | – | – | binds |
